In PubChem BioAssay AID651640 (Broad Institute, 2012):
“And” between values parts separate entries of the source, which are not always exact repeats. Equal values may be shown once. Screen size: about 350,000 compounds; about 6,000 (1.7%) were called active. The shares of active, inactive and inconclusive entries below differ from those in the screen. Cut-off read from the data, not from the text of the source: active = CPE inhibition above about 20% (passing the limit was not always enough); inconclusive = no clear call, values can overlap the other calls; tested in BHK-21 cells.

Assay: protection of cells from dengue 2 killing – plate reader, single concentration, primary screen (AID 651640);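 note: 0% = median of neutral control wells and 100% = median of positive control wells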
Settings: DENV2-infected cells, cytopathic effect rescue, at 9.99 µM, active compounds read high

| Compound | CPE inhibition |
| --- | --- |
| C[C@@H]1CN([C@@H](C)CO)C(=O)c2cc(NC(=O)Cc3ccccc3)ccc2O[C@@H](C)CCCCO[C@@H]1CN(C)C(=O)CCC(F)(F)F | inconclusive: 27.1% |
| O=C(C[C@@H]1CC[C@H]2[C@@H](COC[C@H](O)CN2C(=O)Nc2cccc(Cl)c2)O1)NCCCN1CCOCC1 | inactive: -1.82% |
| C/C(N)=C(/C#N)C(=O)CSc1nnc(Cc2ccccc2F)n1N | active: 54.4% |
| O=S(=O)(c1ccc(F)cc1)N1CCCCN2[C@H](CO)[C@H](c3ccc(-c4ccccc4)cc3)[C@@H]2C1 | inactive: -3.42% |
| CCCOc1cccn2c(N(C=O)Cc3ccc(OC)cc3)c(CC)nc12 | inconclusive: 31.2% |
| Cc1ccc2sc(NC(=O)CN3C(=O)CCC3=O)nc2c1C | inconclusive: 101% |
| O=C(COC(=O)CCS(=O)(=O)c1ccc(F)cc1)NC1CCCCC1 | inconclusive: 26.8% |
| COc1ccccc1S(=O)(=O)N[C@@H]1C=C[C@H](CC(=O)NCc2cc(F)cc(F)c2)O[C@@H]1CO | inactive: 17.3% |
| COc1cc(C2c3sc(=O)[nH]c3SC3C4CCC(C4)C23)ccc1O (centres undefined) | inactive: 10.8% |
| CN(C)CC(=O)N1[C@@H]2c3cccc(=O)n3C[C@H]1[C@H](CO)[C@H]2C(=O)NCc1ccccc1 | active: 20.2% |
| O=C(CSc1nc2ccccc2c(=O)n1-c1ccc(F)cc1F)NC1CC1 | inactive: -2.29% |
| O=C(Cc1ccc([N+](=O)[O-])cc1)NCc1ccccn1 | inactive: -8.61% |
| CSCc1ccc(C(=O)N2CCC(N3CCC(C(=O)NC(C)C)CC3)CC2)o1 | inconclusive: 49.3% |
| O=C(NCC1CCOCC1)c1ccc(-c2ccc(F)c(F)c2)c2ccoc12 | inconclusive: 55.3% |
| CS(=O)(=O)N1CCN(c2ccnc3cc(Cl)ccc23)CC1 | inactive: 2.41% |
| COc1ccc(CC(=O)Nc2c(C(=O)N3CCN(c4ccccc4OC)CC3)oc3ccccc23)cc1OC | inconclusive: 21.4% |
| Cc1nn(CCC(=O)NCc2ccc(OC(C)C)cc2)c(=O)c2nn(-c3ccccc3)c(C)c12 | inconclusive: 49.1% |
| CC/C=C/C(=O)N1CC2(CC(c3cccc(NC(=O)COc4ccc(Cl)cc4)c3)=NO2)C[C@H]1C(N)=O (some centres undefined) | active: 22.3% |
| Nc1nc(-c2ccc(-c3ccccc3)cc2)cs1 | inactive: -2.2% |
| COc1ccc(NC(=S)N2CCC(C(=O)c3ccc(F)cc3)CC2)cc1 | active: 37% |
| Cc1ccc(S(=O)(=O)N2C[C@@H]3[C@H]4CC[C@H](C4)[C@@H]3[C@@H](C)[C@@H]2c2ccn(Cc3ccccc3)c2)cc1 | inconclusive: 42.8% |
| Cc1ccccc1Nc1nc(-c2cccnc2)nc2ccccc12 | inactive: -1.43% |
| CS(=O)(=O)N1CC(=O)N2[C@H](C1)[C@H](c1ccc(C#Cc3ccccc3)cc1)[C@@H]2CO | inactive: -4.22% |
| COC(=O)[C@]12CCCCC=C1N(Cc1ccc(Cl)cc1Cl)C(=O)[C@H](CC(=O)NCCc1ccccc1OC)C2 | inconclusive: 20.4% |
| COC1=C(Nc2ccccc2)C(=O)C(OC)=C(Nc2ccccc2)C1=O | inactive: 1.08% |

| Compound | CPE inhibition |
| --- | --- |
| CC(=O)N(c1ccccc1)C1CCCC1 | inconclusive: 47% |
| COc1ccc(S(=O)(=O)N2CCC(C(=O)N[C@H](C(=O)NCc3ccccc3)C(C)C)CC2)cc1 | active: 47.1% |
| C[C@H](NC(N)=O)C(=O)Nc1ccc2c(c1)OCO2 | inactive: 9% |
| C=C(C)CNC(=O)CCc1nnc(Cc2cccc(C(F)(F)F)c2)o1 | inactive: -4.26% |
| Cc1ccc(NS(=O)(=O)c2cccc(C(=O)NC3CC3)c2)c(C)c1 | inconclusive: 32.4% |
| COc1cccc(CN2[C@H](CO)[C@@H]3c4ccccc4N(C(=O)CC(F)(F)F)C[C@@H]32)c1 | inconclusive: 30.1% |
| C[C@H]1[C@H](c2ccccc2)Oc2cc(Br)ccc2S(=O)(=O)N1Cc1cccc(F)c1 | inconclusive: 28.8% |
| CN=C1SC(C(=O)Nc2ccccc2Cl)CC(=O)N1c1ccc(OC(F)(F)Cl)cc1 (centres undefined) | inactive: -3.39% |
| Cc1cc(C(=O)Nc2cccc3c2O[C@H](CN(C)Cc2ccc(C(=O)O)cc2)[C@H](C)CN([C@H](C)CO)C3=O)n(C)n1 | active: 45.7% |
| COc1cccc(S(=O)(=O)N[C@H]2C=C[C@H](CC(=O)NCc3ccncc3)O[C@@H]2CO)c1 | inactive: -3.02% |
| O=C(CCN1CCCCC1)N[C@H]1CC[C@H](CC(=O)N2CCC(Cc3ccccc3)CC2)O[C@@H]1CO | inconclusive: 20.3% |
| CCN(CC(=O)Nc1c(F)cccc1F)C(=O)/C=C/c1ccc2c(c1)OCO2 | active: 84.3% |
| CCNC(=O)[C@@H]1[C@@H](CO)[C@@H]2Cn3c(ccc(-c4cncnc4)c3=O)[C@@H]2N1Cc1ccc2c(c1)OCO2 | inconclusive: 26.4% |
| COc1ccc(Br)c(C(=O)NCC2CCCCC2)c1 | inconclusive: 31.5% |
| COc1nc(N/N=C/c2ccc(C)cc2)nc(N2CCCCC2)n1 | inconclusive: 24.7% |
| Cc1ccccc1OCCOC(=O)c1cc(S(=O)(=O)N2CCOCC2)ccc1C | active: 71.7% |
| COC(=O)N(C)C[C@H]1OCc2ccccc2-c2c(n(C)c3ccccc23)C(=O)N([C@H](C)CO)C[C@H]1C | inconclusive: 22.6% |
| COc1ccc(Br)cc1CN1CCC(N2CCCC2)CC1 | active: 25.3% |
| COc1ccc(C(=O)Nc2ccc(CN3CCOCC3)cc2)cc1Br | inconclusive: 23.5% |
| C[C@H]1CN([C@@H](C)CO)C(=O)c2cc(C#CCN(C)C)cnc2O[C@H]1CN(C)Cc1ccc(F)cc1 | active: 32.1% |
| CSc1nc(-c2ccc(Cl)cc2)nc(N)c1C#N | inconclusive: 22.8% |
| COC(CNC(=O)c1cccnc1)OC | inactive: -2.56% |
| C[C@H]1CN([C@@H](C)CO)C(=O)CCCn2nncc2CO[C@@H]1CN(C)S(=O)(=O)c1ccc(Cl)cc1 | inactive: 5.82% |
| COC(=O)C1=C(NC(=O)c2ccccc2[N+](=O)[O-])CCS1 | inconclusive: 21.2% |
| COc1ccc(N2CCN(C(=O)c3cc([N+](=O)[O-])ccc3N3CCN(CCO)CC3)CC2)cc1 | inconclusive: 39.1% |

Part of the list above, set out differently:
Compound	CPE inhibition
Cc1ccc(S(=O)(=O)N2C[C@@H]3[C@H]4CC[C@H](C4)[C@@H]3[C@@H](C)[C@@H]2c2ccn(Cc3ccccc3)c2)cc1	inconclusive: 42.8%
Cc1ccccc1Nc1nc(-c2cccnc2)nc2ccccc12	inactive: -1.43%
CS(=O)(=O)N1CC(=O)N2[C@H](C1)[C@H](c1ccc(C#Cc3ccccc3)cc1)[C@@H]2CO	inactive: -4.22%
COC(=O)[C@]12CCCCC=C1N(Cc1ccc(Cl)cc1Cl)C(=O)[C@H](CC(=O)NCCc1ccccc1OC)C2	inconclusive: 20.4%

The list continues:

| Compound | CPE inhibition |
| --- | --- |
| COC(C(=O)Nc1ccnn1C1CCN(Cc2ccc(Cl)s2)CC1)c1ccccc1 (centres undefined) | inconclusive: 29.3% |
| COc1ccc(S(=O)(=O)N(C)C[C@H]2Oc3c(NC(=O)CCCCCC(=O)Nc4ccccc4N)cccc3C(=O)N([C@@H](C)CO)C[C@@H]2C)cc1 | active: 32.1% |
| COc1ccccc1S(=O)(=O)N[C@H]1C=C[C@@H](CC(=O)NCc2cccc(F)c2)O[C@H]1CO | active: 23.4% |
| Cc1ccc(S(=O)(=O)Nc2ccc3c(c2)C(=O)N([C@@H](C)CO)C[C@H](C)[C@@H](CN(C)S(=O)(=O)c2ccc(F)cc2)OCCCC[C@H](C)O3)cc1 | inconclusive: 41.5% |
| COc1ccc(C#Cc2cnc3c(c2)C(=O)N([C@H](C)CO)C[C@H](C)[C@H](CN(C)C(=O)Nc2cccc4ccccc24)O3)cc1OC | inconclusive: 32.4% |
| N#Cc1ccccc1S(=O)(=O)N1CCN(CC(=O)NC(=O)NC2CCCCC2)CC1 | inactive: -3.67% |
| Cc1noc(C)c1NC(=O)N[C@H]1C=C[C@H](CC(=O)NCc2ccc(Cl)c(Cl)c2)O[C@@H]1CO | inconclusive: 35.9% |
| COc1ccc(NC(=O)N(C)C[C@@H]2OCCCC[C@@H](C)Oc3ccc(NC(=O)NC4CCCCC4)cc3C(=O)N([C@H](C)CO)C[C@@H]2C)cc1 | inactive: 1.54% and inactive: 2.7% |
| COc1cccc(CN2CC3(CN(C)C3)c3c(n(C)c4cc(OC)ccc34)[C@H]2CO)c1 | inconclusive: 44.2% |
| CCCCn1c(N)c(N(CCOC)C(=O)CCS(=O)(=O)c2ccc(Cl)cc2)c(=O)[nH]c1=O | inconclusive: 25.9% |
| COCCn1c(SCC(=O)Nc2ccc3c(c2)OCCO3)nc2c(c1=O)SC(C)C2 (centres undefined) | inconclusive: 78.8% |
| CC1(C)CC(=O)c2c(O)cc(OCC(=O)NCCc3ccc(S(N)(=O)=O)cc3)cc2O1 | inconclusive: 61.6% |
| C[C@@H]1CCCCO[C@H](CN(C)C(=O)CCC(F)(F)F)[C@@H](C)CN([C@H](C)CO)C(=O)c2cc(NC(=O)Nc3ccccc3)ccc2O1 | inactive: -0.655% |
| CC1=Nc2nc(N3CCCCC3)c(C#N)c3c4c(nc(c23)N1)N(c1ccc(C(C)C)cc1)C(=O)C4 | inconclusive: 26.3% |
| COc1ccc(NC(=O)Nc2cccc3c2O[C@H](CN(C)C(=O)NC2CCCCC2)[C@H](C)CN([C@@H](C)CO)C3=O)cc1 | active: 88.4% |
| Cc1cc(C)nc(SSc2nc(C)cc(C)n2)n1 | inconclusive: 32.8% |
| Cc1ccc(OCC(=O)N/N=C/c2ccncc2)cc1C | inconclusive: 46.9% |
| CCN1C(=O)[C@H]2[C@@H](c3ccc(OC)cc3)N[C@]3(CCCN(Cc4ccc(Br)cc4)C3=O)[C@H]2C1=O | inconclusive: 35.1% |
| O=C(NCCCc1ccncc1)C1CCC(=O)N(Cc2cccc(C(F)(F)F)c2)C1 (centres undefined) | inactive: 11% |
| COC(=O)[C@H](C(C)C)N(Cc1ccccc1)S(=O)(=O)CCN1CCCC1 | inactive: -0.172% |
| O=C(c1cccs1)c1sccc1Cc1ccccc1 | inactive: -2.57% |
| C[C@@H]1CN([C@H](C)CO)C(=O)c2cc(C#CCN(C)C)cnc2O[C@@H]1CN(C)C(=O)c1cccc(F)c1 | inconclusive: 41.8% |
| CC(=O)Nc1ccc(SCC(=O)N(C)C2CCS(=O)(=O)C2)cc1 (centres undefined) | inconclusive: 34% |
| O=C(O)c1c2c(nc3ccccc13)/C(=C/c1ccc(O)cc1)CC2 | inconclusive: 24.2% |
